In all, about 33,000 sequences were measured (“E-score (-0.5 to 0.5)”: median about -0.015, highest 2% from about 0.3 on). This is one part of the list.
molecular target: T1, Abf1 (UniProt P14164); assay: PBM E-score (8-mer binding enrichment) (E-score (-0.5 to 0.5)); higher = stronger / more preferred TF binding; conditions: protein concentration: 200 nM; construct: GST-full length
T1 sequence: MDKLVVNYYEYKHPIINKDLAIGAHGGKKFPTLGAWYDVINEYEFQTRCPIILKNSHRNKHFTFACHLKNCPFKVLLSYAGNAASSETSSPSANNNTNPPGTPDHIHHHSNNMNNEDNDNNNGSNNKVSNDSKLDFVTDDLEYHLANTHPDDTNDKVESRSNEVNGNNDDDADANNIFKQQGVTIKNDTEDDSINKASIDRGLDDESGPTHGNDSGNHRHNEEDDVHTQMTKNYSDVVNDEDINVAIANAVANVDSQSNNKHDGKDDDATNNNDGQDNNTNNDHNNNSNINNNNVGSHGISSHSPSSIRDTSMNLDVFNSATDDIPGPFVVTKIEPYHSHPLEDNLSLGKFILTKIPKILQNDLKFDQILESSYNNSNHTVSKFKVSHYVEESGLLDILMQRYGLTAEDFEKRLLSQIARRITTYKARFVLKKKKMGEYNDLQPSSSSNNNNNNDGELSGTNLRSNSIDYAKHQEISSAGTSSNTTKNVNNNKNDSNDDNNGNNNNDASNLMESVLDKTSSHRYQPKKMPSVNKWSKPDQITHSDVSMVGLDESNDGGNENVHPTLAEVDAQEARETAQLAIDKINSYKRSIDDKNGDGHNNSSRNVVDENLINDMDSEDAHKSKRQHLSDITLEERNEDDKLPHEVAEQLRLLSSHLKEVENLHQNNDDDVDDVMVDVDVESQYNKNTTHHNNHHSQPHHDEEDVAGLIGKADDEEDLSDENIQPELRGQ
Procedure, shortened: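 Each ungapped eight-base word and its reverse complement, pooled, received an E-score from the Universal PBM Analysis Suite. Underlying scans, normalised with masliner, recorded fluorescent anti-GST bound to GST-tagged yeast transcription factors. These were applied at about 100-200 nM to universal all-10-mer Agilent arrays double-stranded by primer extension.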

Sequence	PBM E-score
AACAGTAT	0.0291
ACTTATGG	-0.0559
CCATTGAG	-0.057
GCTGGGTA	-0.0116
CTTGAGAA	-0.106
AACGTTCC	-0.1
GGAGTTTA	-0.249
ATTTCGTA	0.273
CGGCGCAG	-0.0595
ACCCTCAT	-0.207
AGTACCAC	-0.127
CCGGTTAG	-0.22
GCTAGTGA	0.194
GCCGATAC	0.0706
CGAAATGC	0.089
CACGCATC	0.0665
ATACTCCG	0.158
AACGAGTG	0.162
TAACAGGA	0.0454
TACTGTCA	0.146
AGGATTCA	0.0301
ACCCCCCT	-0.334
CAACAATA	0.114
CGCCTAAC	0.117
CTACCGAA	-0.131

Sequence	PBM E-score
CTCCAAGA	-0.175
CTGGAGTC	-0.25
ACCCTCGT	-0.0001
ACTTCCCG	0.0488
GGCTAGTA	0.21
AGTTAGGA	0.0889
CTTTCCAC	0.0558
ACGTATAC	0.162
AATTGCGC	-0.0775
CATGGTAA	0.0567
ACGCAAGT	-0.103
AGTTAGTC	0.0121
GTGCGACA	0.128
AGGAATGA	0.149
CACTTCCG	-0.091
CGCGGGAC	-0.172
CATGGCAC	-0.15
CGTGGGCA	0.0108
CGTATCGA	0.0981
CGTGAGAA	0.253
AACATTGA	-0.0377
CCACTCGA	0.0826
CTCGCACC	-0.0934
TCGTGAGA	0.263
AACCAGGC	-0.188

Sequence	PBM E-score
TCAAGTCA	0.0276
AAAGGCGC	0.102
GTCCGGCA	-0.0924
AGGCAACC	-0.0748
ATTAAAAA	0.279
GTCTGAAC	-0.0513
AAGAATTC	0.112
ACGTTTTC	0.0965
AAGGCGAA	-0.112
ACCGGCAT	-0.0711
CCAGTGAC	0.0883
ATATGAAC	0.0908
CAGATTGG	-0.278
GTCACGGA	0.206
CAGTCCCC	-0.369
ATGGGGGC	-0.378
GGTCTGTA	-0.269
AGAGAGCG	-0.103
CACCAAGC	-0.181
ATATGGGG	-0.234
AAGATACA	0.147
AAGAAGTA	0.138
CAACGGAA	0.13
GTACGGCA	0.222
GCGGACCC	-0.149

Sequence	PBM E-score
CACAAATG	-0.0408
ACTAGACG	0.168
CCAACCGG	-0.0618
AGTTCCTC	-0.207
TGGACCAA	-0.28
ATAGACAC	0.0964
AGATTGCT	-0.11
CATCACAC	0.141
CACCATCC	-0.189
GATTCGAA	0.121
GCCGATCA	-0.00195
ACTAATTA	0.289
AGATACAC	0.138
ACCGGGCT	-0.169
AGTGATGC	0.319
GTTGAATA	0.186
CATGCAGG	-0.219
CTTCGCCC	-0.161
GAACAATC	0.0605
AAATCAGC	0.0634
ATTCGGCG	0.0671
AGGCGTAT	0.0228
CGTACCTC	0.0233
ATATCCAC	0.141
AAATGAGC	-0.0797

Exported comma-delimited: part of the list above.
Sequence,PBM E-score
CACCAAGC,-0.181
ATATGGGG,-0.234
AAGATACA,0.147
AAGAAGTA,0.138
CAACGGAA,0.13
GTACGGCA,0.222

Next entries.

Sequence	PBM E-score
CCCGGCGG	-0.29
CGTCGTCC	0.307
GCTAACAC	-0.0248
ACATGGGG	-0.293
GGCGAACA	-0.126
CAACGCAA	-0.0477
AATGGCTA	0.0665
AGCCTCCT	-0.222
ACCCTAGG	-0.07
CCCATAAG	-0.167
CACCGACG	0.0491
GTTAGCAA	0.104
AGGCGAGC	-0.197
GGGTATGA	-0.0169
CCAAAAGA	0.0195
CGAGCCTC	-0.215
CCGCAGGA	-0.211
ACGAAGGC	0.085
ACCGAAGC	-0.223
ATCGCGCG	0.276
CGCCGATA	0.108
ACGCCTCT	-0.332
GATCATCA	0.278
AGGCGACC	-0.0317
GCCAGCCC	-0.375

Sequence	PBM E-score
CCGTAAAC	0.0995
CCATGGAC	0.017
ATCGATCA	0.0584
TCACCTGA	-0.00949
ACAGAAGT	-0.106
GAACATTC	-0.121
AATTTGCG	-0.0805
GCTGTACA	-0.025
ATGTGGGA	-0.124
CGAGGGTC	-0.195
CTTGACAA	0.104
GAGGCGAA	0.134
ACATTAGG	-0.0908
GGCCTGAC	-0.0336
ACTGGAAA	0.00544
GACAAGCA	0.0163
GAGCGAGA	0.153
ATTCTTTC	-0.0665
AAGCTCGT	0.191
CACTGGAA	-0.0381
CCTCTGCC	-0.263
ACCAATAG	-0.133
AATGCCCG	-0.151
AAGCACCA	0.0116
ATTTGCCG	-0.12

Sequence	PBM E-score
CTCTCCTA	-0.117
AACATACG	0.144
AGTGCTTG	-0.0775
CGAATGTC	0.0331
GAGGCTAC	-0.23
AATAGGCA	-0.0119
AACAGCGA	-0.147
ATGAACAA	0.0933
GAAGGACC	-0.148
GAATAGCC	-0.137
CGAGTTTC	-0.122
AGTGGTTG	-0.0565
ACGGCGTG	0.161
TAGCAACA	0.0959
CCGCTAGC	-0.189
ACCTTACC	-0.0706
AGCTGTAT	-0.356
GGACGCGA	-0.0137
ACGAAGGA	0.0584
ACTGTAGG	0.0945
TCTTAAAA	0.00926
CTTAGTAA	0.157
GTTATGGA	0.00526
CTTACGTC	-0.0145
TCATTAAA	0.272

Sequence	PBM E-score
AAAGGTCG	-0.0258
TCCATGCA	-0.0997
CACTCCGA	-0.0615
AGCACGCT	-0.202
ACTCTACA	-0.0573
ATCGTCAA	0.342
CACCTTAG	-0.124
AGCATTAG	0.0553
ATCGTTGA	0.208
AAACGGTA	0.141
ACCCACGT	-0.00749
CTCTCTGC	-0.188
GCTCTTTA	-0.103
ACATTTAT	0.0922
ATAAATGG	0.0835
CGGGATTA	0.0022
ATGACGAG	0.243
GCAACCCC	-0.144
ACTGAGAA	-0.055
ACGGACTC	-0.0811
CGTATCCA	-0.0211
GAATAGTA	0.145
GAAATGTC	0.0758
AAGATTGA	0.0973
GGATAAGA	-0.048

Sequence	PBM E-score
AACACGCC	-0.202
AGTAAATC	0.0893
CGGACAAG	0.1
CACTCCCG	-0.104
GAGCGACC	-0.0178
CAAACCCA	0.0842
CTAAGAAG	0.227
AATTATCC	0.0502
ACATGGTA	0.167
ATTCATGA	0.173
CCACCGAA	-0.00243
ATGAGACC	-0.144
ACGCCATC	-0.0905
CAAGGGCA	-0.398
ATCAAAGG	-0.0809
GCGGGCCA	-0.179
GTGTAATA	0.237
ATGGCCAA	-0.0504
CTCTTGTC	0.024

Single values from above:
PBM E-score, ACATGGTA reads 0.167
PBM E-score, ATGAGACC reads -0.144

Reference: the supplement of paper PMC3334620
